These are yes or no findings as the source states them, for the method shown. Some binding calls cover weakened binding; strength is not graded here.
B1: hu sgn-14 (antibody, V domains shown)
VH: EVQLVESGGGLVQPGGSLRLSCAASGYSFTGYYIHWVRQAPGKGLEWVARVIPNNGGTSYNQKFKGRFTLSVDNSKNTAYLQMNSLRAEDTAVYYCAREGIYWWGQGTLVTVS
VL: DIQMTQSPSSLSASVGDRVTITCRSSQSLVHSNGNTFLHWYQQKPGKAPKLLIYTVSNRFSGVPSRFSGSGSGTDFTLTISSLQPEDFATYYCSQTTHVPWTFGQGTKVEIKR
B2: hu sgn-19 (antibody, V domains shown)
VH: EVQLVESGGGLVQPGGSLRLSCAASGYSFTGYYIHWVRQAPGKGLEWVARVIPNNGGTSYNQKFKGRFTLSVDNSKNTAYLQMNSLRAEDTAVYYCAREGIYWWGQGTLVTVS
VL: DIQMTQSPSSLSASVGDRVTITCRSSQSLVHSNGNTFLHWYQQKPGKAPKLLIYTVSNRFSGVPSRFSGSGSGTDFTLTISSLQPEDFATYFCSQTTHVPWTFGQGTKVEIKR
B3: hu sgn-26 (antibody, V domains shown)
VH: EVQLVESGGGLVQPGGSLRLSCAASGYSFTGYYIHWVRQAPGKGLEWVARVIPNAGGTSYNQKFKGRFTLSVDNSKNTAYLQMNSLRAEDTAVYYCAREGIYWWGQGTLVTVS
VL: DIQMTQSPSSLSASVGDRVTITCRSSQSLVHSNGNTFLHWYQQKPGKAPKLLIYTVSNRFSGVPSRFSGSGSGTDFTLTISSLQPEDFATYFCSQTTHVPWTFGQGTKVEIKR
B4: hu sgn-23 (antibody, V domains shown)
VH: EVQLVESGGGLVQPGGSLRLSCAASGYSFTGYYIHWVRQAPGKGLEWVARVIPNQGGTSYNQKFKGRFTLSVDNSKNTAYLQMNSLRAEDTAVYYCAREGIYWWGQGTLVTVS
VL: DIQMTQSPSSLSASVGDRVTITCRSSQSLVHSNGNTFLHWYQQKPGKAPKLLIYTVSNRFSGVPSRFSGSGSGTDFTLTISSLQPEDFATYYCSQTTHVPWTFGQGTKVEIKR
B5: hu sgn-18 (antibody, V domains shown)
VH: EVQLVESGGGLVQPGGSLRLSCAASGYSFTGYYIHWVRQAPGKGLEWVARVIPNNGGTSYNQKFKGRATLSVDNSKNTAYLQMNSLRAEDTAVYYCAREGIYWWGQGTLVTVS
VL: DIQMTQSPSSLSASVGDRVTITCRSSQSLVHSNGNTFLHWYQQKPGKAPKLLIYTVSNRFSGVPSRFSGSGSGTDFTLTISSLQPEDFATYFCSQTTHVPWTFGQGTKVEIKR
B6: hu sgn-22 (antibody, V domains shown)
VH: EVQLVESGGGLVQPGGSLRLSCAASGYSFTGYYIHWVRQAPGKGLEWVARVIPNAGGTSYNQKFKGRFTLSVDNSKNTAYLQMNSLRAEDTAVYYCAREGIYWWGQGTLVTVS
VL: DIQMTQSPSSLSASVGDRVTITCRSSQSLVHSNGNTFLHWYQQKPGKAPKLLIYTVSNRFSGVPSRFSGSGSGTDFTLTISSLQPEDFATYYCSQTTHVPWTFGQGTKVEIKR
B7: hu sgn-27 (antibody, V domains shown)
VH: EVQLVESGGGLVQPGGSLRLSCAASGYSFTGYYIHWVRQAPGKGLEWVARVIPNQGGTSYNQKFKGRFTLSVDNSKNTAYLQMNSLRAEDTAVYYCAREGIYWWGQGTLVTVS
VL: DIQMTQSPSSLSASVGDRVTITCRSSQSLVHSNGNTFLHWYQQKPGKAPKLLIYTVSNRFSGVPSRFSGSGSGTDFTLTISSLQPEDFATYFCSQTTHVPWTFGQGTKVEIKR

Protein sequences, listed by entry. Tags and fused reporters are not part of them. Residues count along the entry.
UniProt P25942, residues 21-193: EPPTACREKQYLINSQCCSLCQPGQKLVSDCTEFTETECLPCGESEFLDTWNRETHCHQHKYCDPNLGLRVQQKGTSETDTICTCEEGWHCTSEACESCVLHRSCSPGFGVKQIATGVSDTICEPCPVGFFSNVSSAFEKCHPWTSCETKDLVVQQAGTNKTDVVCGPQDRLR

Target: CD40 immobilized on microassay plates (UniProt P25942 21-193, limits assumed)
Test: serially diluted antibody on CD40 immobilized on microassay plates
Description: Antibodies constructed using these variant light and heavy chain variable domains were analyzed for binding activity. Each antibody was diluted to equivalent concentrations, and then serially diluted. The diluted antibodies were assayed for binding to CD40 immobilized on microassay plates.

binding, binds:
B1, B2, B3, B4, B5, B6, B7
